{
  "sequences": {"note": "Amino acid sequences for entries named in this document (tags omitted).", "UniProt Q8NER1, whole entry, looked up": "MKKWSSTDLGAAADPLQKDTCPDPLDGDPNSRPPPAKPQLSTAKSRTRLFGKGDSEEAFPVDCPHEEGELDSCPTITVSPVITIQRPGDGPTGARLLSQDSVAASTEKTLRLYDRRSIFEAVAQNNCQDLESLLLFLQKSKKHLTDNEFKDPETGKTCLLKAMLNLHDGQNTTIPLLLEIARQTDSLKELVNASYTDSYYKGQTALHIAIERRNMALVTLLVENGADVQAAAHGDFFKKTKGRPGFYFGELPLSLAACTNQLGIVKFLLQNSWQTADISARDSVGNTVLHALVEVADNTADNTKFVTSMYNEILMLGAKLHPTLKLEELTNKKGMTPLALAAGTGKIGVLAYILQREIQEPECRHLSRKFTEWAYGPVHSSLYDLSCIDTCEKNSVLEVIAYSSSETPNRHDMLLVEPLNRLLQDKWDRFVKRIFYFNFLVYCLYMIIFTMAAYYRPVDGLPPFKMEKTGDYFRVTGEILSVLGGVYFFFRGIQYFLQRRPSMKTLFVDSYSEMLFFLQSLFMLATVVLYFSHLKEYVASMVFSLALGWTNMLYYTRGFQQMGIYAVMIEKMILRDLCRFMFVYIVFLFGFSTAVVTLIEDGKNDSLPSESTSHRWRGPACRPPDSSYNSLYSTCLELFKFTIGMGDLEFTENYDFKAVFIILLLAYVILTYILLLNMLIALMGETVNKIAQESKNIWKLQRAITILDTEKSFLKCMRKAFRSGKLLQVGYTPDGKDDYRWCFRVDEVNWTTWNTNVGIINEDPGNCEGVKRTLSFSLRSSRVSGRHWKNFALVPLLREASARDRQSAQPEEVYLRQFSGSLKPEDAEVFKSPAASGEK"},
  "source": "PubChem BioAssay AID540275",
  "about": "(National Center for Advancing Translational Sciences (NCATS), 2011)",
  "note": "In all, about 320,000 compounds went through this assay and about 620 (0.19%) were called active. Inconclusive means that the source gave no clear call. Such entries were picked first, then a sample of the others. No stated cut-off is given here; in the data, active means activation above about 80%; inconclusive means between about 30% and that limit; inactive means weaker than that.",
  "data": [
    {"target": "Transient receptor potential cation channel subfamily V member 1 (Homo sapiens) (UniProt Q8NER1)", "test": "HTS Assay for Compounds that Act as Agonists of the Vanilloid Receptor 1; further: 0% is about no effect", "settings": "TRPV1-expressing cells, Fluo-8 calcium influx, agonist mode; at 8.33 µM, active compounds read high", "procedure,_shortened": "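Fluo-8 calcium influx in TRPV1-expressing cells, kinetic read (ex 480/em 520 nm). Compound added and read 3 min for agonist activity, followed by capsaicin at EC20 final and 2 min further read for enhancement.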", "values": [
      {"compound": "COc1ccc(-c2cc(=O)c3cc(F)ccc3[nH]2)cc1", "activation": "inactive: 11.3%"},
      {"compound": "CCOC(=O)C1(Cc2ccccc2C(F)(F)F)CCN(C2CCN(C(C)=O)CC2)CC1", "activation": "inactive: 6.2%"},
      {"compound": "CC(C)c1cc(C(=O)Nc2cccc(Cl)c2)no1", "activation": "inconclusive: 45.7%"},
      {"compound": "COc1ccc(CNC(=O)/C=C/c2cc([N+](=O)[O-])ccc2OC(F)F)cc1OC", "activation": "inconclusive: 63.3%"},
      {"compound": "O=C(NCCc1ccc(Cl)cc1)c1ccc2nc(N3CCOCC3)sc2c1", "activation": "inconclusive: 48.3%"},
      {"compound": "CCOC(=O)C(=CNc1ccccc1C)C(=O)OCC", "activation": "inconclusive: 78.2%"},
      {"compound": "O=C(NC1CCCc2ccccc21)c1ccc(S(=O)(=O)N2CCOCC2)cc1", "note": "(stereo not drawn)", "activation": "inconclusive: 45.5%"},
      {"compound": "C=CCN=Cc1c(C)[nH]n(-c2ccccc2)c1=O", "activation": "inconclusive: 42.2%"},
      {"compound": "COc1ccc(S(=O)(=O)N2CCCCC2)cc1NC(=O)CSc1ncnc2ccccc12", "activation": "inactive: 1.22%"},
      {"compound": "CN1CCN(C(=O)/C=C/c2ccc(Cl)cc2)CC1", "activation": "inconclusive: 46.1%"},
      {"compound": "CC(=O)Nc1ccc(S(=O)(=O)NNC(=O)c2cccc([N+](=O)[O-])c2)cc1", "activation": "inactive: -3.93%"},
      {"compound": "NC(=O)Cn1c(=O)n(CCCC(=O)NC2CCN(Cc3ccccc3)CC2)c(=O)c2ccccc21", "activation": "inactive: -1.34%"},
      {"compound": "CSc1nsc(SCC(=O)Nc2cccc(C(C)=O)c2)n1", "activation": "inconclusive: 47%"},
      {"compound": "Cc1ccc(C(=O)O)cc1NCc1ccncc1", "activation": "inactive: 2.7%"},
      {"compound": "O=C(NCCCN1CCOCC1)c1ccc2c(c1)N(Cc1ccccc1)CCS2", "activation": "inconclusive: 42.6%"},
      {"compound": "Cc1ccc(CSCC(=O)N/N=C/c2ccc(OCC(=O)Nc3ccc(C)cc3)cc2)cc1", "activation": "inconclusive: 52.9%"},
      {"compound": "CCN1CCc2c(OCc3ccc(C)cc3)cccc2C1=O", "activation": "inconclusive: 79.2%"},
      {"compound": "Cc1cccc(N2CCN(C(=S)Nc3ccc4nc(N5CCOCC5)cc(C)c4c3)CC2C)c1", "note": "(stereo not drawn)", "activation": "inactive: -17.9%"},
      {"compound": "O=C(NN=C1c2ccccc2-c2ccccc21)c1ccccn1", "activation": "inconclusive: 33.7%"},
      {"compound": "COc1ccc(Br)cc1CN1CCN(C(=O)c2cccc(F)c2)CC1", "activation": "inconclusive: 33.3%"},
      {"compound": "O=C(c1ccccc1O)N1N=C(c2ccccc2)CC1(O)C(F)(F)F", "note": "(stereo not drawn)", "activation": "inactive: 21.6%"},
      {"compound": "CCc1ccc(NS(=O)(=O)c2cccc3nonc23)cc1", "activation": "inconclusive: 31.9%"},
      {"compound": "O=C(NCCC1=CCCCC1)C1CCN(S(=O)(=O)c2ccccc2C(F)(F)F)CC1", "activation": "inconclusive: 32.3%"},
      {"compound": "COC(=O)COc1ccc(-c2ccc(F)cc2)cc1C=O", "activation": "inconclusive: 36.2%"},
      {"compound": "COc1ccc(-n2nc(C(=O)NCC(=O)N3CCCC(C)C3)c3ccccc3c2=O)cc1Cl", "note": "(stereo not drawn)", "activation": "inconclusive: 61.4%"},
      {"compound": "CCOc1ccc(C(=O)Nc2cccc3ncccc23)cc1Br", "activation": "inconclusive: 38.5%"},
      {"compound": "COc1ccc(CN2CCN(CC(=O)Nc3ccccc3C(=O)NC3CC3)CC2)cc1F", "activation": "inactive: 0.598%"},
      {"compound": "Cc1ccc2nc(-c3ccc(S(=O)(=O)N4CCCCC4)cc3)cn2c1", "activation": "inconclusive: 37.1%"},
      {"compound": "Cc1ccc(C)c(NC2=NS(=O)(=O)c3ccccc32)c1", "activation": "inactive: -0.378%"},
      {"compound": "N#CCC(=O)Nc1ccc(C(=O)OCC(=O)Nc2ccccc2Sc2ccccc2)cc1", "activation": "inactive: -0.731%"},
      {"compound": "COc1ccc(NC(=O)CSc2nc(-c3ccc(C)cc3)cc(C(F)(F)F)c2C#N)cc1", "activation": "inactive: 1.28%"},
      {"compound": "COc1ccc(-c2nn(-c3ccccc3)cc2/C=C\\C(=O)N2CCOCC2)cc1[N+](=O)[O-]", "activation": "inconclusive: 58.2%"},
      {"compound": "COc1ccc(/C=C2\\CCCc3c2nc2ccccc2c3C(=O)O)cc1OC", "activation": "inconclusive: 76.1%"},
      {"compound": "COc1ccc(NC(=O)CSc2nnnn2Cc2ccccc2)cc1", "activation": "inconclusive: 32.6%"},
      {"compound": "S=C(Nc1ccc(Oc2ccccc2)cc1)N1CCOCC1", "activation": "inconclusive: 71.6%"},
      {"compound": "O=C(NNC(=S)Nc1ccccc1Cl)C1CC1", "activation": "inactive: -4.73%"},
      {"compound": "COc1ccc(CNC(=O)CN2CCN(C(c3ccccc3)c3ccccc3)CC2)cc1", "activation": "inconclusive: 35.4%"},
      {"compound": "CCN(CC)S(=O)(=O)c1ccc(/C=C/C(=O)O)cc1", "activation": "inactive: 0.649%"},
      {"compound": "Cc1ccc(SCc2cn3cc(Cl)ccc3n2)cc1", "activation": "inconclusive: 46%"},
      {"compound": "CC(C)(C)c1csc(SCC(=O)Nc2ccc(Cl)cn2)n1", "activation": "inconclusive: 41.4%"},
      {"compound": "COc1ccccc1NC1=C(Cl)C(=O)N(C2CCCCC2)C1=O", "activation": "inactive: 10.3%"},
      {"compound": "CCOc1ccc(/C=C/C(=O)N2CCOCC2)cc1OC", "activation": "inconclusive: 57.7%"},
      {"compound": "O=C(NC1CC1)c1sc2cc(Cl)ccc2c1Cl", "activation": "inconclusive: 35.3%"},
      {"compound": "Cc1ccccc1OC(C)C(=O)Nc1ccc(S(=O)(=O)N2CCCC2)cc1", "note": "(stereo not drawn)", "activation": "inconclusive: 38.1%"},
      {"compound": "Cc1ccc(NC(=O)CC(=O)c2ccccc2)cc1C", "activation": "inconclusive: 45.9%"},
      {"compound": "O=C(CCC1CCCCC1)Nc1nccs1", "activation": "inactive: 17.4%"},
      {"compound": "Nc1nc2ccc(C(=O)NCCOC(=O)C3CCCCC3)cc2s1", "activation": "inconclusive: 40.9%"},
      {"compound": "Cc1ccc(C(=O)NNC(=O)c2ccc(C)cc2)cc1", "activation": "inconclusive: 30.4%"},
      {"compound": "COc1cccc(OC)c1C(=O)NC(=S)NNC(=O)[C@H]1C[C@@H]1c1ccccc1", "activation": "inactive: 2.9%"},
      {"compound": "CCN(CC)c1ccc(S(=O)(=O)N2CCOCC2)cc1NC(=O)CSC(=S)N1CCCC1", "activation": "inconclusive: 39.6%"},
      {"compound": "c1ccc(OCc2nn3c(C4CCCCC4)nnc3s2)cc1", "activation": "inconclusive: 37.4%"},
      {"compound": "O=C(N/N=C/c1ccc(Br)s1)c1ccc([N+](=O)[O-])cc1", "activation": "inconclusive: 45.3%"},
      {"compound": "O=C(Nc1ccc(Cl)c(Cl)c1)N1CC=CCC1", "activation": "inconclusive: 65.3%"},
      {"compound": "CC(C)Cc1cc(C(=O)Nc2cccc(O)c2)no1", "activation": "inconclusive: 73.2%"},
      {"compound": "Cc1ccc(S(=O)(=O)NNC(=O)NC23CC4CC(CC(C4)C2)C3)cc1", "activation": "inconclusive: 42.6%"},
      {"compound": "CC(=O)c1ccc(NC(=O)C(C)OC(=O)C2CCN(c3ccc(C(F)(F)F)cn3)CC2)cc1", "note": "(stereo not drawn)", "activation": "inconclusive: 42.1%"},
      {"compound": "CCC1CCc2sc(C(=O)O)cc2C1", "note": "(stereo not drawn)", "activation": "inactive: 0.204%"},
      {"compound": "COc1cc(C(C(=O)NC2CCCC2)N(CCO)C(=O)Cn2nnc(-c3ccc(C)o3)n2)ccc1O", "note": "(stereo not drawn)", "activation": "inactive: 0.894%"}
    ]}
  ]
}
